Reference: PubChem BioAssay AID504467 (National Center for Advancing Translational Sciences (NCATS), 2011)
The whole screen tested about 330,000 compounds, of which about 7,700 (2.3%) were called active. Inconclusive results, whose numbers are uncertain, are shown with a selection of clear calls. Calls follow the shape of the dose curve; as a rule, active = well fitted inhibition curve with a large enough effect; inconclusive = small, poorly fitted or top-dose-only effect, or effect the other way; inactive = flat fitted curve, though single readings scatter. Where the call is inconclusive, the potency comes from a doubtful curve fit.
% is scaled to controls: 0 for no effect and ±100 for the full control effect; potency is read from the fitted curve at half-maximal effect.

Assay: qHTS screen for small molecules that inhibit ELG1-dependent DNA repair in human embryonic kidney (HEK293T) cells expressing luciferase-tagged ELG1; also: nearly all actives have a fitted effect of over 55% in size
Details: HEK293T ELG1-luciferase reporter, luminescence, 16 h, DNA damage induced by 5-fluorouridine; activity change, negative = inhibition: at 46.1 µM (top of the series)
Outline: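 Cells (2,000 per well) received 5-fluorouridine plus test compound or DMSO and were incubated 16 hr at 37 °C, 5% CO2. Luciferase activity was read by luminescence 30 min after ONE-Glo addition; signal suppression marked inhibition of damage-induced ELG1 function.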
For `COC(=O)c1ccccc1NC(=O)c1ccc(COc2ccc(C)c(C)c2)o1`, the Potency was “inactive”. With `CCn1c(=O)c(C(=O)NCCCO)c(O)c2ccccc21` the Potency was inconclusive: 20.6 µM [activator, partial curve, poor fit]. For `CC(NC(=O)c1cccc(Cl)c1)C1CC2CCC1C2` (stereo not given), the Potency was “inactive”. With `O=S(=O)(NCc1c(Cl)cccc1Oc1ccccc1)c1ccccc1` the Potency was inconclusive: 23.1 µM [inhibitor, single point]. For `Cc1cccc(C)c1NC(=O)CN(C)C(=O)c1ccccc1C(=O)N(C)Cc1ccccc1`, the Potency was inconclusive: 6.51 µM [inhibitor, single point]. With `CCOc1ccc(C2c3[nH]c4ccccc4c3CCN2Cc2cccn2-c2ncccn2)cc1` (stereo not given) the Potency was inconclusive: 3.26 µM [inhibitor, partial curve, poor fit]. For `CCC(C)(C)n1nnnc1C(c1ccncc1)N1CCC(Cc2ccccc2)CC1` (stereo not given), the Potency was inconclusive: 29.1 µM [inhibitor, partial curve, poor fit]. For `COc1ccc(OC)c(Cc2nnc(CCC(=O)NCc3ccc(C)s3)o2)c1`, the Potency was inconclusive: 5.8 µM [inhibitor, partial curve]. For `Cc1cccc(N=C2NC(=O)/C(=C/c3cccs3)S2)c1`, the Potency was inconclusive: 18.4 µM [activator, partial curve, poor fit]. In the case of `Cc1ccc(Nc2nc(N)nc(CN3CCN(Cc4ccc5c(c4)OCO5)CC3)n2)cc1`, the Potency is reported as inconclusive: 16.4 µM [inhibitor, single point]. In the case of `COc1ccccc1NS(=O)(=O)c1ccc2oc(SCC(=O)N3CCNC3=O)nc2c1`, the Potency is reported as inconclusive: 20.6 µM [inhibitor, partial curve]. In the case of `COc1ccc(S(=O)(=O)N2CCN(C(=O)c3cc(-c4ccccc4OC)n[nH]3)CC2)cc1`, the Potency is reported as inconclusive: 18.3 µM [inhibitor, partial curve]. For `O=C(CN1C(=O)C2C3C=CC(C3)C2C1=O)Nc1ccc(S(=O)(=O)N2CCCCC2)cc1` (stereo not given), the Potency was “inactive”. With `COCC(C)n1c(C)cc(C(=O)COC(=O)c2cccn2C)c1C` (stereo not given) the Potency was inconclusive: 0.517 µM [activator, partial curve]. In the case of `CCCCCc1nnc(NC(=O)c2ccc3nc[nH]c3c2)s1`, the Potency is reported as “inactive”. With `CN(C)c1ccc(NC(=O)Nc2cccc3ccccc23)cc1` the Potency was inconclusive: 29.1 µM [activator, single point]. With `CCc1ccc(OCCNC(=O)c2ccccc2SCc2ccc(F)cc2)cc1` the Potency was inconclusive: 29.1 µM [inhibitor, single point]. With `Cc1oc(-c2ccc(Cl)cc2)nc1CS(=O)CC(=O)NC1CCCC1` (stereo not given) the Potency was “inactive”. With `S=c1[nH]nc(-c2ccco2)n1Cc1ccccc1` the activity change, negative = inhibition was inconclusive: 93.9% [activator]. For `Cc1cc(C(=O)NN=C(CCC(=O)O)c2cccs2)c(C)o1`, the Potency was “inactive”. In the case of `COc1ccc(S(=O)(=O)Nc2ccc(S(=O)(=O)NCC3CCCO3)cc2)cc1` (stereo not given), the Potency is reported as inconclusive: 4.11 µM [inhibitor, partial curve, poor fit]. In the case of `O=C(N/N=C/c1ccc[nH]1)c1ccccc1OCc1ccc(F)cc1`, the Potency is reported as “inactive”. In the case of `COc1cc(C(=O)OCCn2c(=O)c3c(ncn3CCN(C)C)n(C)c2=O)cc(OC)c1OC`, the Potency is reported as inconclusive: 20.6 µM [activator, partial curve, poor fit]. For `COc1ccc(S(=O)(=O)N2CCOC23CCN(C(=O)c2ccc(Cl)cc2Cl)CC3)cc1`, the Potency was inconclusive: 29.1 µM [inhibitor, single point]. With `CCCN(CCC)c1nc2ccccc2nc1C(C#N)C(=O)OC(C)COC` (stereo not given) the Potency was “inactive”. In the case of `Cc1c(Cl)cccc1NC(=O)Cn1nnc(C(=O)NCc2cccs2)c1N`, the Potency is reported as “inactive”. For `Cc1ccc(N2C(=O)c3ccccc3C2Nc2ccccc2)nc1` (stereo not given), the Potency was inconclusive: 18.4 µM [activator, single point]. In the case of `Cc1ccc(C)c(Nc2ncnc(N)c2[N+](=O)[O-])c1`, the Potency is reported as “inactive”. With `CCc1nc(CN2CCN(c3ccc(C(F)(F)F)cn3)CC2)c(C)[nH]1` the Potency was inconclusive: 2.91 µM [inhibitor, full curve]. With `Cc1ccc(NC(=O)c2ccc(F)cc2F)cc1NS(C)(=O)=O` the Potency was “inactive”. In the case of `COc1ccccc1CNC(=O)Cn1cccc1C(=O)c1ccccc1`, the Potency is reported as inconclusive: 25.9 µM [activator, single point]. For `COC(=O)c1[nH]c2ccccc2c1NC(=O)CN1CCN(c2cccc(Cl)c2)CC1`, the Potency was inconclusive: 8.91 µM [inhibitor, partial curve, poor fit]. With `Nc1c(Cl)ncnc1N/N=C/c1ccc(O)cc1` the Potency was inconclusive: 13 µM [activator, partial curve]. With `CC(C)(CNC(=O)c1sc2cc(Cl)ccc2c1Cl)N1CCOCC1` the Potency was inconclusive: 29.1 µM [inhibitor, single point]. With `CC(=O)c1cc(C#N)c(SCCC(C)C)nc1C` the Potency was “inactive”. In the case of `Clc1ccc(-c2cnn3c(-c4ccncc4)ccnc23)cc1`, the Potency is reported as inconclusive: 2.31 µM [activator, full curve]. For `O=C(C(=O)N1CCN(c2ccccc2)CC1)c1cn(CC(=O)N2CCCCCC2)c2ccccc12`, the Potency was “inactive”. In the case of `C=CCn1c(=O)c2ccccc2n2c(SCc3nc4ccccc4s3)nnc12`, the Potency is reported as inconclusive: 18.4 µM [activator, partial curve]. For `CCC1CCCCN1C(=O)CSc1nnc(-c2ccc(OC)cc2)o1` (stereo not given), the Potency was “inactive”. With `COc1nnc(-c2ccc(C)c(S(=O)(=O)NC(C)(C)CO)c2)c2ccccc12` the Potency was inconclusive: 18.3 µM [inhibitor, single point]. For `Cc1cc(C)c2nc3c(c(C(=O)O)c2c1)CCC3`, the Potency was “inactive”. With `COc1ccc(Nc2nnc(-c3ccc(C(N)=O)cc3)c3ccccc23)cc1` the Potency was inconclusive: 29.1 µM [inhibitor, single point]. In the case of `Oc1c(C=Nc2ccccc2Cl)[nH]c2ccccc12`, the Potency is reported as inconclusive: 11.6 µM [activator, partial curve]. In the case of `CC(C)Oc1ccc(S(=O)(=O)N2CCOCC2)cc1NC(=O)c1ccc(N2CCCC2=O)cc1`, the Potency is reported as “inactive”. With `CCn1ccc(C(=O)Nc2ccccc2SC)n1` the Potency was inconclusive: 14.6 µM [activator, partial curve].
